Reference: PubChem BioAssay AID2685 (National Center for Advancing Translational Sciences (NCATS), 2010)
Some of the results follow. Shown are side measurements of this screen, not its main read-out; they come without a call. Most of these compounds were active or inconclusive in the main read-out, so they are no random draw. The note in brackets gives the kind of curve behind each potency; many fits are weak.

Assay: qHTS Assay for Lipid Storage Modulators in Drosophila S3 Cells;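 as to cell number change: cells counted by Cell Tracker Red CMTPX staining in the red channel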
Conditions: BODIPY lipid droplet fluorescence, 18-24 h; for cell number change: measured here: cell count max response, cells fed with added oleic acid
Outline: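 Drosophila S3 cells loaded with oleic acid (400 uM, as added) and compounds at several concentrations; lipid droplets imaged by 488-nm laser-scanning cytometry, 500–530 nm intensity and object ratio to cell channel. Percent activity normalized to 20 uM Triacsin C.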

[1] = measured here: cell number channel AC50, cells fed with added oleic acid
[2] = measured here: lipid fluorescence (Fed channel) AC50, cells fed with added oleic acid

SMILES | cell number change [%] | AC50 [1] | AC50 [2]
O=C1OCC(CO)(CO)N=C1NNc1cc(Cl)ccc1Cl | -19.3 | 0.13 µM [falling, full curve, poor fit] | 6.51 µM [falling, single point]
CCOC(=O)C1CCN(C(=O)c2ccc3c(=O)n4nc(Nc5cc(C)ccc5C)sc4nc3c2)CC1 | -36 | 0.00517 µM [falling, full curve, poor fit] | 
Cc1ccc(S(=O)(=O)N2CCOCC2)cc1NC(=O)COC(=O)c1ccc2c(c1)OCO2 |  | 0.0058 µM [rising, full curve, poor fit] | 
CCOc1ncccc1C(=O)N1CCN(c2ccc(C(F)(F)F)cn2)CC1 | 41.3 | 0.184 µM [rising, full curve, poor fit] | 0.103 µM [rising, full curve, poor fit]
C/C(CC(=O)Nc1ccc(C)c(Cl)c1)=N\NC(=O)C1CCCCC1 | 32.1 |  | 
Cc1ccc(N(CC(O)CON=C2c3ccccc3-c3ccccc32)S(C)(=O)=O)cc1 (stereo not drawn) | -55.7 | 18.4 µM [falling, single point] | 0.517 µM [falling, full curve]
COC(=O)c1ccccc1NC(=O)CSc1nnc(-c2cccnc2)o1 | 13.5 |  | 29.1 µM [rising, single point]
CCOC(=O)c1c(C)c(C(=O)NC(C)COC)c(C)n1CC (stereo not drawn) | -88.9 | 25.9 µM [falling, partial curve] | 18.4 µM [falling, partial curve]
CN(C)S(=O)(=O)c1ccc(C(=O)OCC(=O)NCc2ccccc2)cc1 | -5.28 |  | 0.13 µM [falling, full curve, poor fit]
CCC(C)[C@H]1COCCS(=O)(=O)N1Cc1ccc(C)cc1 (stereo partly drawn) | -10.2 |  | 
CCOc1ccc(S(=O)(=O)N2CCOCC2)cc1NC(=O)C1=COCCO1 | 92 | 13 µM [rising, partial curve] | 
CC(NC(=O)c1ccc(NC(=O)c2ccco2)cc1)c1ccccc1 (stereo not drawn) | 30.2 | 14.6 µM [rising, partial curve, poor fit] | 29.1 µM [rising, single point]
CC1CCN(C(=O)c2ccc(-c3ccccc3Cl)o2)CC1 | 41.4 | 18.4 µM [rising, single point] | 
Cc1oc(/C=N/NS(=O)(=O)c2ccccc2)cc1Br | 29.6 | 3.26 µM [rising, full curve, poor fit] | 29.1 µM [rising, single point]
CCCCNc1nc2ccccc2nc1NS(=O)(=O)c1cccs1 |  | 5.8 µM [rising, single point] | 5.17 µM [rising, single point]
CCOc1ccc(C2CC(c3ccccc3)Nc3nc(N)nn32)cc1 (stereo not drawn) | 1.26 |  | 
Cc1cc(C(C)(C)CC(C)(C)C)ccc1OCCOCC[N+](C)(C)Cc1ccccc1 | -74.8 | 14.6 µM [falling, partial curve, poor fit] | 18.4 µM [falling, partial curve]

Another view of 2 compounds above.
CCOC(=O)C1CCN(C(=O)c2ccc3c(=O)n4nc(Nc5cc(C)ccc5C)sc4nc3c2)CC1
  cell number change [%]: -36; AC50 [1]: 0.00517 µM [falling, full curve, poor fit]
Cc1ccc(S(=O)(=O)N2CCOCC2)cc1NC(=O)COC(=O)c1ccc2c(c1)OCO2
  AC50 [1]: 0.0058 µM [rising, full curve, poor fit]

The listing continues:

SMILES | cell number change [%] | AC50 [1] | AC50 [2]
O=C1/C(=C/c2ccc([N+](=O)[O-])cc2)C=C(c2ccccc2)N1c1ccccc1 | -38 | 0.517 µM [falling, full curve, poor fit] | 0.58 µM [falling, full curve]
O=C(CN(Cc1ccccc1F)C(=O)c1csnn1)NCc1ccc2c(c1)OCO2 | 11.3 |  | 
O=C(Nc1ccc(S(=O)(=O)N2CCCCC2)cc1)c1ccc(F)cc1 | 6.96 |  | 6.51 µM [falling, single point]
COc1cc(/C=N/NC(=O)c2cc(C)n(-c3ccc(F)cc3)c2C)cc(OC)c1O |  |  | 29.1 µM [rising, single point]
Cc1ccc2sc(N3CCN(C(=O)C4=COCCO4)CC3)nc2c1C | -28.1 |  | 
COc1ccc(NC(=O)CCCc2ccc(OC)c(C)c2)cc1 | 9.34 |  | 23.1 µM [rising, partial curve]
Cc1ccc(C)c2nc(N3CCCC3)c(C#N)cc12 | 78 | 6.51 µM [rising, full curve] | 1.46 µM [rising, full curve]
CCOc1ccccc1OCCCOc1ccc(C)cc1Br | -24.8 | 5.17 µM [falling, full curve, poor fit] | 0.00517 µM [falling, full curve, poor fit]
O=S(=O)(c1cc(Cl)ccc1Cl)N1CCN(Cc2ccco2)CC1 | 22.5 |  | 11.2 µM [rising, partial curve, poor fit]
CCOC(=O)N1CCN(C(=O)/C(=C/c2ccc(N(C)C)cc2)NC(=O)c2ccccc2)CC1 | 4.23 |  | 0.00461 µM [rising, full curve, poor fit]
CC(C)(C)NC(=O)NC(=O)COC(=O)C1CC(=O)N(Cc2ccccc2)C1 (stereo not drawn) | 46.4 | 29.1 µM [rising, single point] | 
O=C(Nc1nnc(-c2ccco2)o1)c1cccc(N2C(=O)CCC2=O)c1 |  | 0.366 µM [falling, partial curve, poor fit] | 
COc1ccc(-c2nnc(SC(C)C(=O)Nc3nccs3)n2-c2ccccc2)cc1OC (stereo not drawn) | -11.6 |  | 1.64 µM [rising, partial curve]
CCn1cc(C(=O)N2CCN(c3ccc(C(C)=O)cc3)CC2)c2cc(OC)c(OC)cc2c1=O | 125 | 18.4 µM [rising, partial curve] | 3.26 µM [rising, single point]
N#C/C(=C\c1ccccc1)c1ccccn1 |  | 0.00461 µM [rising, full curve, poor fit] | 0.00461 µM [rising, full curve, poor fit]
CSc1nncn1/N=C/c1ccccc1F | -41.2 | 4.11 µM [falling, full curve] | 14.6 µM [falling, partial curve]
O=C(COC(=O)c1ccc(OC(F)F)cc1)Nc1cccc(S(=O)(=O)NC2=NCCC2)c1 | 35 | 8.2 µM [rising, partial curve] | 10.3 µM [rising, partial curve]
